Experimental data from the supplement of paper PMC3334620.
Whole data set: some 33,000 sequences, median “E-score (-0.5 to 0.5)” near -0.0034, cut for the highest 2% near 0.25. The list shows a part of the results.

target: T1, Yap3 (UniProt P38749); test: PBM E-score (8-mer binding enrichment) (E-score (-0.5 to 0.5)); higher = stronger / more preferred TF binding; conditions: protein concentration: 100 nM; construct: GST-full length
T1 sequence: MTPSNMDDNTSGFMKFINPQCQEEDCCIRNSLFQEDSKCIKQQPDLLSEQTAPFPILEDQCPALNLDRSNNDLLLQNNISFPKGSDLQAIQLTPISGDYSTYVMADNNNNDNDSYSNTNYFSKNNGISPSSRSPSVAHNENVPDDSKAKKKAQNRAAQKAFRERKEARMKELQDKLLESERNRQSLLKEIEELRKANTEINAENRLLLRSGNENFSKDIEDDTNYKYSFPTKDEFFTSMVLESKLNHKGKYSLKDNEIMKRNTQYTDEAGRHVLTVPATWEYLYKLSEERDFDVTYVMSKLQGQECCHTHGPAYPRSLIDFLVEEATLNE
In short: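 Detection of bound protein used fluorescent anti-GST, with scans normalised by masliner. The proteins were GST-tagged yeast transcription factors applied at about 100-200 nM to universal all-10-mer Agilent arrays made double-stranded by primer extension. Each ungapped eight-base word, pooled with its reverse complement, was scored with an E-score from the Universal PBM Analysis Suite.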

Sequence	PBM E-score
AAACATCA	0.172
AGACGTTA	-0.0983
GACCTTGA	-0.0719
AGAATTCC	-0.00751
GCTACAAA	0.119
ATGCAACC	0.0638
ACGTTGAA	0.0903
TGTCAGAA	-0.0116
CTGGACCA	-0.00728
AAGAGATG	0.0281
AAGTTCGG	-0.0937
CATGCACG	-0.162
AAGGATGA	0.111
CACTATTC	0.216
ATCACGGA	0.157
GTCAACTA	0.24
ACAGCGGT	-0.0239
GGCGTTAA	-0.0643
CCGTGTCG	-0.17
ACAGAGCC	-0.163
CTGGCAGA	-0.0517
ACGAGTCT	-0.132
CACCAATC	0.0494
CACGTTAG	0.0507
CTACGTCA	-0.0902

5 entries drawn at random from the list so far, as already listed:
Sequence	PBM E-score
AGACGTTA	-0.0983
GGCGTTAA	-0.0643
AAGGATGA	0.111
AGAATTCC	-0.00751
GTCAACTA	0.24

Going on with the list.

Sequence	PBM E-score
AATGACCC	-0.0581
CATGTCAA	-0.0698
AGTTAACT	0.117
ATATTGGG	0.0718
CCAAAGCG	-0.1
GAATCAGC	-0.0767
CAGGCCAA	-0.223
AGAGCGCG	0.0467
ACAGGGTG	-0.126
CCCTATTA	-0.0452
ATCTCAAC	0.179
AATGTCGG	-0.0136
ACTCGATA	0.156
CATCGAAA	-0.0375
TATCATCA	0.18
CCCCTATA	-0.168
AATACGCG	0.0798
AAGAAACT	0.154
CGATCCCA	-0.149
ATCTGTTA	0.217
AGGGGGCA	-0.114
CCTTATCC	-0.188
ACGAGCAA	-0.0129
CCCCCTGA	-0.367
CAAAATGA	0.136

Sequence	PBM E-score
GTGGTATA	0.167
ATTATGGC	0.171
AACATAAT	0.334
ACACCACG	-0.0883
CAATGAAC	0.126
CAATTTTC	0.196
AGATCCTC	-0.0231
CTATCGTA	0.104
ACCATGAG	-0.00212
CGTTGGGA	-0.0536
TGAATAAA	0.106
GACAGTAA	0.128
ATGAAGGG	-0.199
ATGCGCCC	0.0511
AGCTGGAG	-0.217
ATCGTTTA	0.135
AGGGCTTG	-0.0222
CAAGCTAC	-0.0993
CGGGATAG	0.0402
GCCAGACC	-0.209
CTACGGAG	-0.0141
ACTCGCGA	0.132
GACGCGCC	-0.119
AGCAGCAG	-0.06
CGACCACA	-0.0771

Sequence	PBM E-score
CGCCGAAG	-0.129
ACCACTGG	0.0032
ACTGCAAT	0.106
GCCCAGGC	-0.257
ACAATTCC	0.0667
ACAACGAA	0.203
ACATTGGG	-0.0777
GTGGGATA	0.0881
ATCAGTGG	-0.0751
CTAACGCC	0.0636
TACTTAGA	0.0709
ATTCTACA	0.153
AAATTGGG	0.106
AGAGGGCC	-0.247
ACCAGGCA	-0.0335
CAAAATGC	0.0471
AGCCTGTC	-0.202
AATATGGC	0.0119
AGTGCACA	-0.0457
AGGGTTAT	0.0963
GCTATGTA	-0.097
CCATGAGA	0.057
TAACCTGA	0.0272
ATGTTTTA	0.047
AGCATCTG	-0.135

Sequence	PBM E-score
AGAGAGCC	-0.201
CCGCAGTC	-0.00761
CCTTACAG	-0.187
ACGAATCC	0.0796
CTTTTATA	-0.00621
TACAACCA	0.0559
AGCTCTCC	-0.0977
CCAAGCCC	-0.206
CAGTAACA	0.0576
GTTGCGGA	-0.0945
TTGATCAA	0.0696
ACGGACGA	0.027
CATACCGC	0.0322
CCTTTAGC	0.0123
ACCGATCC	-0.0315
AAACGTTT	0.112
CTGCACGA	-0.0162
GCCTCCAC	-0.237
AGCTCGTG	0.0246
GACACAAC	0.0342
GTCACCAA	-0.0738
AATGGGGA	0.00873
TGGGGGAA	-0.294
ACGCGCTG	-0.0575
CCACGGTA	-0.14

Sequence	PBM E-score
AATGGGCG	-0.158
AAGAGTTA	-0.0588
CGAGCCTA	-0.0627
AAACAGTA	0.132
GCATATGA	0.214
AAGCGCGC	0.14
ACGTGCTG	0.0393
GAAACCAA	0.108
CCTCGATC	0.00579
CGATACGC	0.0557
TCCGGGCA	-0.214
CCGAGTTC	0.0881
TCCTAGAA	-0.0619
ATAGGGCC	-0.174
ACCCGTCC	-0.136
CTGTGCCC	-0.163
AGTGTTCA	0.19
GAGGAGAC	-0.0755
ATATGACC	-0.054
CTTCATGA	0.168
CTACGTTC	-0.112
CTCTGTAC	0.0373
ATCAGAAT	0.0724
ACGCACCC	-0.243
AGCAATCA	0.116

Sequence	PBM E-score
GAACGCTC	-0.11
AGCCCGCC	-0.25
GAAGCCCC	-0.344
GAAATACC	0.0809
CAGCGAGC	-0.041
ATAGGAAT	0.0277
AGGCAGGG	-0.116
AGGAGAGG	-0.201
CAGCATGG	-0.0172
GCAACTAA	0.195
CGTTTCGC	0.0985
TCCCTCGA	-0.106
CGAACGCG	-0.00679
AGTAAACA	0.138
CAAGAAGC	0.0867
AGGCCTCA	-0.167
GTCGTCTA	0.00554
ACTAACGA	0.156
CGTCGTGA	-0.208
GCCCCGCC	-0.0998
CCTTCATA	0.0542
GTGCGCAA	-0.0538
